Tested on: human CD3 or mouse PMEL CD8 T cells
Assay: Drug loading onto human CD3 and mouse PMEL CD8 T cells via liposomes (HPLC, Example 82)
Assay type: cell-based
Conditions: antibody versus Arg3 mediated loading

CCNCc1nc2c(N)nc3ccccc3c2n1CC(C)(C)O [Gardiquimod, reference compound]
Levels of loading across 2 different species, fold of each other: ≤ 2 fold
